Measured values published in PMC7804115.
Results are given in words; binding and its absence hold for the method and conditions named. In cells and extracts the contact can be indirect. A result given as binding can be weak or reduced; the word gives no strength.

Target: T1, mouse Jaw1 long form (Ms LJaw1) (mouse) (UniProt Q60664)
T1 sequence: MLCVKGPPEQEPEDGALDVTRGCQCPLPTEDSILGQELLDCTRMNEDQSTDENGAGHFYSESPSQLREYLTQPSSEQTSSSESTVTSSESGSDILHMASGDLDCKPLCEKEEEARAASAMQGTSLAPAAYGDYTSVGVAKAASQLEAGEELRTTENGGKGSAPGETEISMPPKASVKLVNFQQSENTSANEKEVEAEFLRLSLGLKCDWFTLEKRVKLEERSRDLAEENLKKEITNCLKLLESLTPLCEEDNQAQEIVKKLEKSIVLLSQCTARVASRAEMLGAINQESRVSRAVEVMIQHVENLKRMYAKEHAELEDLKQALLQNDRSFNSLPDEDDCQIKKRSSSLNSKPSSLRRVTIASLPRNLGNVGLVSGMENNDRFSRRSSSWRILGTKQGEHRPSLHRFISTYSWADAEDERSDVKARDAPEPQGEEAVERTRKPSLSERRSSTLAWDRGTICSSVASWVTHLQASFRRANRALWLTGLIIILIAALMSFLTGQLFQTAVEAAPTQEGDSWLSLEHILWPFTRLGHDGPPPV
Experiment: co-IP; FLAG Ms LJaw1 co-expressed with GFP-fused Jaw1 or mutants in HEK293 cells for 24 h; lysis in 50 mM Tris-HCl pH 7.6, 150 mM NaCl, 0.5% NP-40; anti-FLAG tag antibody beads, 4 °C, 2 h; western blot with anti-FLAG and anti-GFP antibodies

| Substance | binding |
| --- | --- |
| GFP Ms Jaw1 Coil (mouse) (domain or fragment) | binds |
| GFP Ms LJaw1 ΔTM (mouse) (domain or fragment) | binds weakly |
